Measurements taken from patent US8974836B2, “Angiogenesis regulating composition and method for regulating angiogenesis” (Air Water, Inc., priority 2009, dated 2015).
Where two headings read alike, the source gives them in different places.

What was measured:
[1] = test system: model mice of oxygen-induced retinal angiogenesis; experiment: Exemplary experiment 4: nitrite versus general-purpose nitrogen monoxide donor drugs, retinal avascular area; type: in vivo, C57BL/6J mouse
Method: Preparation of the model mice of oxygen-induced retinal angiogenesis, fluorescent imaging of retinal vessels and a retinal flat-mount were operated according to exemplary experiment 1.
(§1) Areal ratio of retinal avascular area was calculated pursuant to exemplary experiment 1.

[2] = test system: model mice of oxygen-induced retinal angiogenesis; experiment: Exemplary experiment 3: regulation of retinal angiogenesis, administration from start of angiogenesis (P12); type: in vivo, C57BL/6J mouse; details: 15 μmol/kg hypodermically once per day P12-P16, average
Method: For the model mice of oxygen-induced retinal angiogenesis, retinal angiogenesis is induced by providing 75% oxygen followed by breeding in room air during P12-P17.
Sodium nitrate or sodium nitrite as a test compound was dissolved in physiological saline for injection to prepare a test compound injection of […].
Preparation of the model mice of oxygen-induced retinal angiogenesis, fluorescent imaging of retinal vessels and a retinal flat-mount were operated according to exemplary experiment 1. However sodium nitrate or sodium nitrite was injected to a cervical region hypodermically once per day in amount of 15 μmol/kg for […] from the 12th day (P12) to the 16th day (P16) after birth. In addition, physiological saline as controls was similarly injected hypodermically instead of test compound for the same period of time.
as §1

[3] = test system: model mice of oxygen-induced retinal angiogenesis
[4] = 75 μmol/kg hypodermically once per day P7-P16, evaluated P17, average

Row | SMILES | value of total retinal area ([1]; 20 μmol/kg hypodermically once per day P7-P16, average) [μm^2] | value of total retinal area [2] [μm^2] | value of total retinal area [3, 4] [μm^2] | value of total retinal area ([1]; 15 μmol/kg hypodermically once per day P7-P16, average) [μm^2] | value of total retinal area ([3]; 15 μmol/kg hypodermically once per day P7-P16, evaluated P17, average) [μm^2]
1 | O=[N+]([O-])OCC(CO[N+](=O)[O-])O[N+](=O)[O-] [NTG, nitroglycerin] | 6817842.90 |  |  |  | 
2 | O=[N+]([O-])[O-].[Na+] [sodium nitrate] |  | 5782966.84 | 6629478.87 |  | 
3 | O=NO [sodium nitrite] |  | 6688088.68 | 5711629.25 | 6483871.44 | 6483871.44
